From patent publication US20210093714A1, “Combination and method for inhibiting the cancer cells” (NATIONAL TAIWAN UNIVERSITY, priority 2013, published 2021)
No constants are given. Whether binding was seen depends on the method and setting. Some binding calls cover weakened binding; strength is not graded here.

Biological target: Epidermal growth factor receptor (EGFR) (human) (UniProt P00533)
Experiment: FACS and western blot, A549 cells, rCT 100 ng/mL (FIG. 2G)

binding: binds
B1: CT domain of CCN2 (carboxyl-terminal cystine knot domain) (ligand, human, UniProt P29279 252-349, looked up)
chain: KGKKCIRTPKISKPIKFELSGCTSMKTYRAKFCGVCTDGRCCTPHRTTTLPVEFKCPDGEVMKKNMMFIKTCACHYNCPGDNDIFESLYYRKMYGDMA
